This passage reports NP40-soluble protein abundance results from the supplement of paper PMC6411743.

This test addresses T1, MFN2 (UniProt O95140).
T1 sequence (whole entry): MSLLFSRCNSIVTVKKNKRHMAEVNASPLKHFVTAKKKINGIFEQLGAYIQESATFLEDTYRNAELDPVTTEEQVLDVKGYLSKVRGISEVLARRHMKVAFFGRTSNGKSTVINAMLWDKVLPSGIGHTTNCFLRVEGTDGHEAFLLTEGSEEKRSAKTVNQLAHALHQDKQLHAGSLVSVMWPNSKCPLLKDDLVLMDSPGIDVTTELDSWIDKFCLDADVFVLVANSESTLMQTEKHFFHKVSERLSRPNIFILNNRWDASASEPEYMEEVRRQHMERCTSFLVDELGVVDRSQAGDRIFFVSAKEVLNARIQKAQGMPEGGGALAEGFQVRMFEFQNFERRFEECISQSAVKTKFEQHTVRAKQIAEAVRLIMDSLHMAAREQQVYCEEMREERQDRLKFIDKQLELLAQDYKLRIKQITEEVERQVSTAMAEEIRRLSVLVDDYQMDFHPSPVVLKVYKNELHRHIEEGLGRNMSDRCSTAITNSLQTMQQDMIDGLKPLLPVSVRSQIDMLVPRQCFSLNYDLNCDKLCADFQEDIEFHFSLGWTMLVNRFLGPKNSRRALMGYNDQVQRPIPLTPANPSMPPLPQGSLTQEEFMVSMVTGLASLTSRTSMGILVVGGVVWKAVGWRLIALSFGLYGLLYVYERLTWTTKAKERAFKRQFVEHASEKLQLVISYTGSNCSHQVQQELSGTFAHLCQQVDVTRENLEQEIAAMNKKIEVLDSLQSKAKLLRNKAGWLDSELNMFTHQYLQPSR
The test is described as follows: NP40-soluble protein abundance relative to vehicle (solubility fold change) (ratio); higher = more soluble protein in presence of GTP. On the procedure: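 Solubility proteome profiling in Jurkat crude lysate. Lysate was treated with Mg-GTP (0.1-10 mM) for 10 min at room temperature and 3 min at 37 °C, then solubilised with 0.8% NP40 and benzonase, followed by ultracentrifugation. Proteins were quantified by TMT10 LC-MS/MS; the value is the NP40-soluble abundance relative to the NP40-processed vehicle, from 3 independent experiments.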

± gives the standard deviation of the averaged measurements. This is one part of the list.

Consider `Nc1nc2c(ncn2[C@@H]2O[C@H](COP(=O)(O)OP(=O)(O)OP(=O)(O)O)[C@@H](O)[C@H]2O)c(=O)[nH]1` [guanosine triphosphate], for which the NP40-soluble protein abundance was 0.993 ± 0.1 (concentration: 0.1mM); 0.98 ± 0.15 (concentration: 0.5mM); 0.868 ± 0.11 (concentration: 1mM); 0.976 ± 0.13 (concentration: 2mM); 0.982 ± 0.1 (concentration: 4mM); 0.941 ± 0.08 (concentration: 6mM). In addition, the NP40-soluble protein abundance came to 0.905 ± 0.17 (concentration: 8mM) and 0.928 ± 0.082 (concentration: 10mM).
